Results of single-concentration screens

Protein sequences, listed by entry. Tags and fused reporters are not part of them. Residues count along the entry.
UniProt Q8IDJ8, 1-583: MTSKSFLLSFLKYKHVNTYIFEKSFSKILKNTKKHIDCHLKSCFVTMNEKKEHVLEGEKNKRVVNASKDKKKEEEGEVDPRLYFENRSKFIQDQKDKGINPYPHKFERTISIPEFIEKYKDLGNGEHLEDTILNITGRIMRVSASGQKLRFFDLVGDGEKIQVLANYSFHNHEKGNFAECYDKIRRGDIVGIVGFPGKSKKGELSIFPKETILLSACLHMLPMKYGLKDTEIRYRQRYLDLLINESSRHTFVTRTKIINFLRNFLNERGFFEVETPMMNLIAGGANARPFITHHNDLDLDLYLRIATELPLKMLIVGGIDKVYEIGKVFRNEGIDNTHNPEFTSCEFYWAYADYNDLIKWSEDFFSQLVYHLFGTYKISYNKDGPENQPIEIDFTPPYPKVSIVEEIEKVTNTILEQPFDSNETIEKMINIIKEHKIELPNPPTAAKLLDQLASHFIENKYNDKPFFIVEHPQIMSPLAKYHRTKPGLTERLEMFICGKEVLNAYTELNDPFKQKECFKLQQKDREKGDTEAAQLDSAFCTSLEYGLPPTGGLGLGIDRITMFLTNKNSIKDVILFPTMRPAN

Results are given as percent effect. How 0% and 100% were set is not recorded. Most values in the screen are low, and negative values occur. Compounds were drawn at random from those tested, without regard to their results.

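Enzyme assay of the cytosolic lysyl-tRNA synthetase in 384-well plates, read by luminescence. Target: Lysine-tRNA ligase, Plasmodium falciparum 3D7 (UniProt Q8IDJ8). Compounds at 30 µM. Higher reads as stronger inhibition, judged from the few compounds that gave an IC50. About 69,000 compounds were tested under these conditions; 0.071% (about 49) showed 50% or more at least once.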

With Cc1ncsc1C(=O)N1CCc2[nH]nc(-c3ccc4c(c3)OCO4)c2C1 the screen gave 0.9101%. CC(C)N[C@@H]1CC[C@@H]1NC(=O)c1ccccc1OC(F)(F)C(F)F read 4.637%. CN(C)C(=O)Cn1ccc2cc(NC(=O)N3CCOCC3)ccc21 read 2.679%. COCCC(=O)N1CCCC1c1nc(C)c2c(n1)N(C)C(=O)CC2 (centres unmarked) gave 1.068%.

Cc1cc(C(=O)N2CCc3ncc(CN4CCCCC4)n3CC2)no1 gave 5.336%. O=C(CN1CCCCCC1)NCc1cccnc1Oc1ccccc1 gave 3.257%. COCC(=O)NC[C@]1(O)CN(Cc2ccc3c(c2)OCCO3)C[C@H]1O gave 0.7362%. Result for Cc1cc(C(=O)N2C[C@@H]3COC[C@]3(c3nnc(C4CC4)o3)C2)on1 was -0.5695%.

Cc1ccc(CN2CCC3(CC(=O)N(c4ccc5c(c4)OCO5)C3)C2)o1 (centres unmarked) gave 1.598%. For CS(=O)(=O)NCC1CCCN(C(=O)c2ccc3c(c2)CCCC3)C1 (centres unmarked) the result was 2.966%. Cc1cnn(CCNCC(O)COc2cc(Cl)ccc2Cl)c1 (centres unmarked) gave 1.066%. CC(=O)N(Cc1ncc(C)o1)C1CCN(Cc2cccc(C#N)c2)C1 (centres unmarked) gave 7.791%.

Result for COCCN(C)C[C@@H]1CN(C(=O)c2ccc(O)c(C)c2)C[C@@H]1CO was 5.384%. With Cc1ccccc1C(=O)N1CC[C@@H](N(C)C)[C@@H]1Cc1cnn(C)c1 the screen gave 1.702%. With O=C(O)c1cccnc1CN1CCCCC1CCc1cccc(O)c1 (centres unmarked) the screen gave -1.723%. For Cc1ccc(-c2ccccc2CC2(C(=O)NC(C)C)CCCNC2)cc1 (centres unmarked) the result was 1.069%.

With Cc1noc(C2CCC3(CCN(C(=O)c4c(C)noc4C)CC3)O2)n1 (centres unmarked) the screen gave 2.479%. O=C(c1ccnnc1)N1C[C@@H]2CN(c3ncccn3)C[C@@H]2C1 gave 2.114%. Result for COc1ccc(NC(=O)CCC2CCCN(Cc3ncon3)C2)c(C)c1 (centres unmarked) was -1.913%. For CC(=O)NCCCOc1c(C)cccc1Cl the result was 5.823%.

With Cc1ccccc1C(=O)NC1CCN(c2cnn(C)c2)C1=O (centres unmarked) the screen gave 2.703%. For NC(=O)CN(C(=O)c1c[nH]c2ncccc12)C1CCCC1 the result was 1.642%. COc1ccc(C[C@H]2CN(C(=O)c3ncccn3)CC[C@@H]2OC)cc1 gave 1.127%. With COc1ccc(CC(C)(O)CNC(=O)c2cccs2)cc1 (centres unmarked) the screen gave 3.092%.

OCc1cn([C@@H]2c3ccccc3C3(CCNCC3)[C@H]2O)nn1 read 5.106%. With CCCN1CCN(C(=O)c2ccnc(N)c2)[C@H]2CS(=O)(=O)C[C@H]21 the screen gave 9.107%. O=C(NCCCc1nc(=O)[nH][nH]1)c1ccc(Cl)cn1 gave 7.565%. O=C(NCCCN1CCCCC1)c1n[nH]c(=O)c2ccccc12 read -1.757%.

Result for Cc1csc2c(=O)n3c(nc12)CCN(C(=O)c1ccnn1C)CC3 was 0.9306%. N#CCCN(CCC#N)C(=O)c1ccc(OCC2CC2)cc1 read -1.107%. With Cc1nnc(C(C)N2CCN(Cc3ccc4c(c3)OCO4)CC2)o1 (centres unmarked) the screen gave -1.999%. O=C(c1ccco1)N1C[C@H]2CCCN(C(=O)c3ccsc3)[C@H]2C1 read 3.396%.

With CO[C@@H]1CC[C@@H](N(C)C(=O)COc2ccc(F)cc2)[C@H]1O the screen gave 5.399%. CC(=O)Nc1ccc(CNC2CC(=O)N(Cc3cccc(F)c3)C2)cc1 (centres unmarked) gave -1.364%. CC(C)(C)NC(=O)CN1CCCN(Cc2cc(C#N)ccc2F)CC1 gave -0.7264%. c1cnc(NC[C@H]2OC[C@@H]3CCN(Cc4ccncc4)C[C@@H]32)nc1 gave -2.665%.

NC(=O)CN1CCC(C(=O)NCc2ccc3nonc3c2)CC1 gave 4.781%. CCn1ncc2c1C(COC)N(C(=O)Cc1cccs1)CC2 (centres unmarked) read 3.599%. With O=C(NCC1CCCO1)C1CCN(Cc2nc(C3CC3)no2)CC1 (centres unmarked) the screen gave 2.898%. COCCN1CCN(C(=O)C[C@@H]2C[C@@H](C(C)C)[C@H](CC#N)C=C2C)CC1 read 4.538%.

Result for CN(Cc1cc(Br)cs1)Cc1nnsc1Cl was 0.8871%. Result for COc1ccccc1CCNC(=O)NCC(=O)Nc1cccnc1 was 1.962%. For Cc1nc(NC(=O)CCN2C(=O)c3ccccc3NC2C(C)C)sc1C (centres unmarked) the result was -2.649%. O=C(Nc1cccc(F)c1)C1=NOC2(CCNCC2)C1 read 8.35%.

With O=C(c1ccc(N2CCCC2)nn1)N1CCCC(n2ccnc2)C1 (centres unmarked) the screen gave -1.416%. COCCN1CCC(CNC(=O)C2(C#N)CCCC2)CC1 read 1.91%. With Cc1nc(C2CCCN(c3ncc(Br)cn3)C2)no1 (centres unmarked) the screen gave 4.337%. Cc1cnn(C2CCCN(C(=O)c3cccc(Cn4ccnc4)c3)C2)c1 (centres unmarked) gave 2.032%.

CCn1cc(CNC(=O)CCn2ncc3c(Cl)cccc32)cn1 read -3.739%. Result for COc1cc2ncn(CC(=O)NCCCN(C)C)c(=O)c2cc1OC was 3.347%. With Cc1noc(C)c1CS(=O)(=O)CC(=O)N(C)Cc1cccc(F)c1 the screen gave 6.3%. With Cc1noc(C2CCCN(C(=O)c3cc(Cl)c(Cl)n3C)C2)n1 (centres unmarked) the screen gave 3.713%.

CC(=O)N1CC2(CCCN(Cc3ccc(Cl)cc3)C2)Cc2ccccc21 (centres unmarked) gave 1.821%.

The last 7 entries again:

compound	Percent Effect
Cc1nc(C2CCCN(c3ncc(Br)cn3)C2)no1 (centres unmarked)	4.337%
Cc1cnn(C2CCCN(C(=O)c3cccc(Cn4ccnc4)c3)C2)c1 (centres unmarked)	2.032%
CCn1cc(CNC(=O)CCn2ncc3c(Cl)cccc32)cn1	-3.739%
COc1cc2ncn(CC(=O)NCCCN(C)C)c(=O)c2cc1OC	3.347%
Cc1noc(C)c1CS(=O)(=O)CC(=O)N(C)Cc1cccc(F)c1	6.3%
Cc1noc(C2CCCN(C(=O)c3cc(Cl)c(Cl)n3C)C2)n1 (centres unmarked)	3.713%
CC(=O)N1CC2(CCCN(Cc3ccc(Cl)cc3)C2)Cc2ccccc21 (centres unmarked)	1.821%

Source: ChEMBL document CHEMBL3988442, “University of Dundee, Small-Polar-MMV Screening Library” (2021).